PubChem BioAssay AID652259 | Drosophila RNAi Screening Center | 2013

Aim: 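Genome-wide hunt for genes that control Wingless pathway activity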 (primary screen)
System: Drosophila clone 8 imaginal disc epithelial cells
Reagent: long dsRNA against Drosophila genes
Conditions: pathway stimulated by co-transfected Wingless expression plasmid
Read-out: 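Dual luciferase reads per well after Wingless plasmid stimulation: reporter firefly light and Renilla control light; activity is firefly divided by Renilla, a ratio not deposited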
Reading the numbers: firefly reporter light: higher = more Wg reporter light, before normalisation; Renilla control light: higher = more transfected or surviving cells
Hit rule: 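Strong candidates differ from their plate mean by at least two out of four per-plate statistical tests; weak candidates meet just one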
Calls: active = candidate regulator (raises or lowers reporter); inactive = not a candidate
The screen tested about 22,000 reagents; below is a random part of those that have a named target and a result. Of all reagents, 233 (1.1%) were called active. 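Light values are raw, unnormalised plate reads; the ratio scores behind the reporter calls were not deposited.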 Unmarked entries are inactive. A plus sign joins genes that one reagent is predicted to hit. Not stated in the record: the amount of reagent, the time to read-out, the dose of the treatment.

What is on record for Reepl1 (Receptor accessory protein like 1) [SID104199210]?
firefly reporter light, replicate 1: 31820; Renilla control light, replicate 1: 12838

With Alp13 (Alkaline phosphatase 13) [SID104195573], what was measured?
firefly reporter light, replicate 1: 17705; Renilla control light, replicate 1: 4438

For CG43071 [SID104185545], what does the deposit list?
firefly reporter light, replicate 1: 11232; Renilla control light, replicate 1: 7021

How did the screen score corolla [SID104199894]?
firefly reporter light, replicate 1: 2281; firefly reporter light, replicate 2: 6880; Renilla control light, replicate 1: 779; Renilla control light, replicate 2: 2509

Which result is listed for Blimp-1 [SID104190288]?
firefly reporter light, replicate 1: 2234; firefly reporter light, replicate 2: 10288; Renilla control light, replicate 1: 2184; Renilla control light, replicate 2: 6059

For CG30412 [SID104184356], what was measured?
firefly reporter light, replicate 1: 8412; Renilla control light, replicate 1: 2724

What did the screen give for Samtor (S-adenosylmethionine sensor upstream of TORC1) [SID104184182]?
firefly reporter light, replicate 1: 11832; Renilla control light, replicate 1: 3900

What did the screen give for CG5886 [SID104195700]?
firefly reporter light, replicate 1: 2291; firefly reporter light, replicate 2: 5923; Renilla control light, replicate 1: 976; Renilla control light, replicate 2: 2052

For CG32459 [SID104191644], what does the deposit list?
firefly reporter light, replicate 1: 10665; Renilla control light, replicate 1: 4249

For CG9410 + CG15908 [SID104184768], what was measured?
firefly reporter light, replicate 1: 2340; firefly reporter light, replicate 2: 7003; Renilla control light, replicate 1: 656; Renilla control light, replicate 2: 1674

For CG9410 + CG15908 [SID104184793], how do the results read?
firefly reporter light, replicate 1: 3137; firefly reporter light, replicate 2: 9738; Renilla control light, replicate 1: 852; Renilla control light, replicate 2: 3269

For RpL23 (Ribosomal protein L23) [SID104184440], how do the results read?
firefly reporter light, replicate 1: 3117; firefly reporter light, replicate 2: 6930; Renilla control light, replicate 1: 484; Renilla control light, replicate 2: 1827

With aop (anterior open) [SID104180593], how do the results read?
reporter change call, replicate 1: Wg reporter activity raised (active); firefly reporter light, replicate 1: 2768; firefly reporter light, replicate 2: 6800; Renilla control light, replicate 1: 468; Renilla control light, replicate 2: 1155

For lama (lamina ancestor) [SID104191153], how do the results read?
firefly reporter light, replicate 1: 4503; Renilla control light, replicate 1: 1301

For eEF1alpha1 (eukaryotic translation elongation factor 1 alpha 1) [SID104187213], what does the deposit list?
firefly reporter light, replicate 1: 5480; Renilla control light, replicate 1: 2024

For pon (partner of numb) [SID104198615], what was measured?
firefly reporter light, replicate 1: 20608; Renilla control light, replicate 1: 8890

Which result is listed for ovm + CG31975 [SID104201697]?
firefly reporter light, replicate 1: 4.79e5; firefly reporter light, replicate 2: 5.51e5; Renilla control light, replicate 1: 1.91e5; Renilla control light, replicate 2: 2.12e5

What did the screen give for Sgt (small glutamine-rich tetratricopeptide containing protein) [SID104182604]?
firefly reporter light, replicate 1: 8960; Renilla control light, replicate 1: 2181

With CBP (sarcoplasmic calcium-binding protein) [SID104197538], what was measured?
firefly reporter light, replicate 1: 3636; firefly reporter light, replicate 2: 9776; Renilla control light, replicate 1: 1041; Renilla control light, replicate 2: 2597

What is on record for mthl15 (methuselah-like 15) [SID104180912]?
firefly reporter light, replicate 1: 17209; Renilla control light, replicate 1: 7084

How did the screen score Gr39b (Gustatory receptor 39b) [SID104181640]?
firefly reporter light, replicate 1: 25895; firefly reporter light, replicate 2: 8.65e5; Renilla control light, replicate 1: 14290; Renilla control light, replicate 2: 3.91e5

For Dro (Drosocin) [SID104187198], how do the results read?
firefly reporter light, replicate 1: 7201; Renilla control light, replicate 1: 3520

What is on record for CG10660 [SID104189561]?
firefly reporter light, replicate 1: 7301; Renilla control light, replicate 1: 2362

Which result is listed for Nrd1 (Nardilysin) [SID104199622]?
firefly reporter light, replicate 1: 2059; firefly reporter light, replicate 2: 5559; Renilla control light, replicate 1: 840; Renilla control light, replicate 2: 2284

For CG4854 [SID104195455], how do the results read?
firefly reporter light, replicate 1: 15268; Renilla control light, replicate 1: 4240

How did the screen score CG13306 [SID104189768]?
firefly reporter light, replicate 1: 929; firefly reporter light, replicate 2: 7738; Renilla control light, replicate 1: 729; Renilla control light, replicate 2: 3184

With Npc2h (Niemann-Pick type C-2h) [SID104194089], what does the deposit list?
firefly reporter light, replicate 1: 9588; Renilla control light, replicate 1: 3369

What is on record for Trissin [SID104194786]?
firefly reporter light, replicate 1: 19461; Renilla control light, replicate 1: 6145

How did the screen score Prp19 (Pre-RNA processing factor 19) [SID104187226]?
firefly reporter light, replicate 1: 6096; Renilla control light, replicate 1: 2001

What did the screen give for CG3704 [SID104197966]?
firefly reporter light, replicate 1: 26420; Renilla control light, replicate 1: 18268

Which result is listed for CG3704 [SID104198437]?
firefly reporter light, replicate 1: 26150; Renilla control light, replicate 1: 20397

For ida (imaginal discs arrested) [SID104187955], what was measured?
firefly reporter light, replicate 1: 7147; Renilla control light, replicate 1: 2185

A portion of the results above:
CG9410 + CG15908 [SID104184768]: firefly reporter light, replicate 1 = 2340; firefly reporter light, replicate 2 = 7003; Renilla control light, replicate 1 = 656; Renilla control light, replicate 2 = 1674
CG9410 + CG15908 [SID104184793]: firefly reporter light, replicate 1 = 3137; firefly reporter light, replicate 2 = 9738; Renilla control light, replicate 1 = 852; Renilla control light, replicate 2 = 3269
RpL23 (Ribosomal protein L23) [SID104184440]: firefly reporter light, replicate 1 = 3117; firefly reporter light, replicate 2 = 6930; Renilla control light, replicate 1 = 484; Renilla control light, replicate 2 = 1827
